The values that follow come from article PMC12356834.

The chains behind the UniProt entries cited, without tags or fusion partners. Residues count along the entry.
UniProt P11021, residues 19-654: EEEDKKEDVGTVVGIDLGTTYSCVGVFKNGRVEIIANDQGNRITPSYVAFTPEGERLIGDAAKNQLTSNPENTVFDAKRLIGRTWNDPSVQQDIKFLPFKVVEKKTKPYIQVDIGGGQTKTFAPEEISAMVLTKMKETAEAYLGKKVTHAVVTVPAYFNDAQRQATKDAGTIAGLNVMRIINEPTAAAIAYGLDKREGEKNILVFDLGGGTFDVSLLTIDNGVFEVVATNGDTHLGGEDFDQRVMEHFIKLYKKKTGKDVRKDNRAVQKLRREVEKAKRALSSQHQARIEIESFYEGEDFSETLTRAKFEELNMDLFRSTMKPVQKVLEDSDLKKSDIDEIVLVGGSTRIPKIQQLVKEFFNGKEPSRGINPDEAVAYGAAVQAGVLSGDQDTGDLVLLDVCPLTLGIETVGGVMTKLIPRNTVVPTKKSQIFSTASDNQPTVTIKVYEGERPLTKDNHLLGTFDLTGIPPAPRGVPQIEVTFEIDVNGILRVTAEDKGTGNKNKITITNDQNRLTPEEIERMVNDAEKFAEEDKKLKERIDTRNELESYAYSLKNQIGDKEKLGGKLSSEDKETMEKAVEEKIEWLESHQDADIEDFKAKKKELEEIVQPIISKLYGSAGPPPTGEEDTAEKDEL

These are yes or no findings as the source states them, for the method shown. In cells and extracts the contact can be indirect. Some results given as binding are weak or reduced against the parent protein; the word gives no strength. Sequences can lack the tags named with a protein.

The target of the assay is T1, FLAG-tagged UBOX5 (human) (UniProt O94941).
T1 sequence: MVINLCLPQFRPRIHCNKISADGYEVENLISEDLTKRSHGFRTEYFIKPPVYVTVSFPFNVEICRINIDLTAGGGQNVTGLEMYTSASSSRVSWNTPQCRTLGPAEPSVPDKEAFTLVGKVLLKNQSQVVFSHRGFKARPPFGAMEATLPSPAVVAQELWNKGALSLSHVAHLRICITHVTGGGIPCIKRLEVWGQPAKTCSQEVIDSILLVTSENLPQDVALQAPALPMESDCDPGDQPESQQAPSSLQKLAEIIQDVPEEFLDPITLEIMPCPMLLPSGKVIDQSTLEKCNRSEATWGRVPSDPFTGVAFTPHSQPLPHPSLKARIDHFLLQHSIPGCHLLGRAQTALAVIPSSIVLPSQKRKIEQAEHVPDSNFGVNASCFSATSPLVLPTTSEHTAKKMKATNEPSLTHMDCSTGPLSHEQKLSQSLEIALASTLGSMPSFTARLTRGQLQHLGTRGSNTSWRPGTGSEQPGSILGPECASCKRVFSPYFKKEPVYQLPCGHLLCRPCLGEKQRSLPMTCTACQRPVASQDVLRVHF
Briefly: co-IP; HEK293 cells co-transfected with FLAG-tagged UBOX5-UBD or FLAG-tagged UBOX5 and HA-tagged ubiquitin; thapsigargin, then MG132 before harvest; lysates immunoprecipitated with anti-FLAG M2 and Protein G beads; immunoblot for BIP; mock immunoprecipitation with mouse immunoglobulin as control. (In general: In western blotting, separated proteins are transferred to a membrane and probed.)

Turning to “Binding Immunoglobulin Protein (BIP) (from UniProt P11021 19-654)”, the binding entry is listed as “binds”.
